The results in this text go back to the supplement of paper PMC9549374.

Each structure is given as a SMILES string. The list shows a part of the results. Rule as the data show it: active = 2-fold of DMSO or more and inactive = the rest. Single values of this set are uncertain. Some low values are a fixed figure set by the source, not a measured ratio.

The experiment has as its system CM7/1-hgem mouse ES cell-derived cardiomyocytes. Description: maximal number of mAG-hGem(1/110)-positive cardiomyocytes over 96 h, fold-change vs DMSO; higher = more cardiomyocyte cell cycle activity. To be noted: 1 µM; 96 (max over 12 h time points) h.
As for `NC(=O)NCCC[C@H](N)C(=O)O`, the maximal number was inactive: 0.
As to `CNC(=N)NCCC[C@H](N)C(=O)O`, the maximal number was inactive: 1.
For `O=c1c(O)c(-c2ccc(O)cc2O)oc2cc(O)cc(O)c12` the value was inactive: 1; for `C[C@@H]1O[C@@H](O[C@H]2[C@H](Oc3cc(O)c4c(=O)cc(-c5ccc(O)cc5)oc4c3)O[C@H](CO)[C@@H](O)[C@@H]2O)[C@H](O)[C@H](O)[C@H]1O`, inactive: 1; for `Cc1ccc(C(C)C)cc2c(C)ccc1-2`, inactive: 1.
As for `CC(=O)C1=C(O)C=C2Oc3c(C(C)=O)c(O)c(C)c(O)c3C2(C)C1=O` (stereo in doubt), the figure is inactive: 1; as for `CC=CC1=C(C(=O)O)N2C(=O)[C@@H](NC(=O)[C@H](N)c3ccc(O)cc3)[C@H]2SC1`, inactive: 1; as for `C=CCc1ccc(OC(=O)c2ccccc2)c(OC)c1`, inactive: 0.
Regarding `Cc1cc(O)cc(O)c1C(=O)O`, the maximal number is inactive: 1.
For `C=CCc1ccccc1OCC(O)CNC(C)C` (centres undefined) the value was inactive: 0.5; for `Nc1ncn([C@@H]2O[C@H](CO)[C@@H](O)[C@H]2O)c(=O)n1`, inactive: 1; for `O=C(O)[C@H](O)[C@@](O)(Cc1ccc(O)cc1)C(=O)O`, inactive: 1.
On to `CN1C(C(=O)Nc2ccccn2)=C(O)c2sc(Cl)cc2S1(=O)=O`, for which the maximal number is inactive: 1.
As for `CC(C)CCC[C@@H](C)[C@H]1CC[C@H]2[C@@H]3CC[C@H]4CC(=O)CC[C@]4(C)[C@H]3CC[C@]12C`, the figure is inactive: 0.5.
Turning to `COc1ccc(-c2coc3cc(O)ccc3c2=O)cc1`, the maximal number was inactive: 1.
Turning to `COc1cc(O)c(C(=O)c2ccccc2)cc1O`, the maximal number is inactive: 1.
Turning to `C[C@@H]1CC[C@H]2[C@](C)(CO)[C@@H](O)CC[C@]2(C)[C@@]12CC[C@@](CO)(CCO)O2`, the maximal number was inactive: 1.
`CN1CCc2c(c3ccccc3n2Cc2ccccc2)C1`: the maximal number was inactive: 1.
In the case of `Nc1nc(NC2CC2)c2ncn([C@H]3C=C[C@@H](CO)C3)c2n1`, the maximal number was inactive: 1.
Take `CC(=O)OCC(OC(C)=O)C(OC(C)=O)C(OC(C)=O)C(OC(C)=O)C(COC(C)=O)OC(C)=O` (centres undefined): the maximal number was inactive: 1.
Regarding `Cn1c(=O)[nH]c2ncn(C)c2c1=O`, the maximal number is inactive: 1.
In the case of `COc1ccc(C2C(=O)c3ccccc3C2=O)cc1`, the maximal number is inactive: 1.
For `NCCCS(=O)(=O)O`, the maximal number was inactive: 1.
For `COc1ccc(-c2coc3c(OC)c(OC)cc(O)c3c2=O)cc1` the value was inactive: 0.5.
